## Drug screen on melanoma cell lines: apoptosis marker

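The test systems are human melanoma cell lines, treated with two drugs together for 72 h and then stained and imaged. The read-out is the fraction of cleaved-PARP-positive nuclei, in % of that fraction in the DMSO control; 200 means twice the control level of this apoptosis marker. Every drug was used at one fixed concentration, the higher of two screened. These are primary screening values without error estimates. Basal and induced levels differ widely between cell lines.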 Only some of the drugs and lines screened are listed, without regard to their results. An entry leaves out what has no value listed here. A dash means that no value is listed here.

All values are for the listed drug together with lapatinib (4 µM): CS(=O)(=O)CCNCc1ccc(-c2ccc3ncnc(Nc4ccc(OCc5cccc(F)c5)c(Cl)c4)c3c2)o1

Compounds and concentrations:
KU-0063794 (0.1 µM): COc1ccc(-c2ccc3c(N4CCOCC4)nc(N4C[C@@H](C)O[C@@H](C)C4)nc3n2)cc1CO
GSK650394 (0.8 µM): O=C(O)c1ccc(-c2c[nH]c3ncc(-c4ccccc4)cc23)cc1C1CCCC1
BI-D1870 (1 µM): CC(C)CCN1c2nc(Nc3cc(F)c(O)c(F)c3)ncc2N(C)C(=O)C1C (stereo not shown)
BI-78D3 (1 µM): O=c1[nH]nc(Sc2ncc([N+](=O)[O-])s2)n1-c1ccc2c(c1)OCCO2
CX-4945 (2 µM): O=C(O)c1ccc2c(c1)nc(Nc1cccc(Cl)c1)c1ccncc12
dorsomorphin (2 µM): c1cc(-c2cnn3cc(-c4ccc(OCCN5CCCCC5)cc4)cnc23)ccn1
LFM-A13 (10 µM): C/C(O)=C(\C#N)C(=O)Nc1cc(Br)ccc1Br
XAV939 (10 µM): Oc1nc(-c2ccc(C(F)(F)F)cc2)nc2c1CSCC2
GW0742 (10 µM): Cc1cc(SCc2sc(-c3ccc(C(F)(F)F)c(F)c3)nc2C)ccc1OCC(=O)O
sunitinib (2 µM): CCN(CC)CCNC(=O)c1c(C)[nH]c(/C=C2\C(=O)Nc3ccc(F)cc32)c1C
selumetinib (0.075 µM): Cn1cnc2c(F)c(Nc3ccc(Br)cc3Cl)c(C(=O)NOCCO)cc21
lestaurtinib (0.02 µM): C[C@]12O[C@H](C[C@]1(O)CO)n1c3ccccc3c3c4c(c5c6ccccc6n2c5c31)CNC4=O
SU6656 (2 µM): CN(C)S(=O)(=O)c1ccc2c(c1)/C(=C/c1cc3c([nH]1)CCCC3)C(=O)N2
CP-690550 (5 µM): C[C@@H]1CCN(C(=O)CC#N)C[C@@H]1N(C)c1ncnc2[nH]ccc12
dovitinib (0.5 µM): CN1CCN(c2ccc3nc(-c4c(N)c5c(F)cccc5[nH]c4=O)[nH]c3c2)CC1

- BI-78D3 | A375: 132; WM3526: 137; UACC-257: 136
- XAV939 | A375: 54.4; WM3526: 84.9; 501mel: 55.4; UACC-257: 68.9
- LFM-A13 | A375: 51.3; WM3526: 172; 501mel: 113; UACC-257: 84.1
- BI-D1870 | A375: 55.1; WM3526: 195; 501mel: 595; UACC-257: 35.4
- CP-690550 | WM3526: 240; UACC-257: 54.0
- SU6656 | WM3526: 164; UACC-257: 66.1
- CX-4945 | A375: 186; WM3526: 782; UACC-257: 90.6
- lestaurtinib | A375: 142; WM3526: 261; UACC-257: 40.8
- KU-0063794 | A375: 81.5; WM3526: 173; 501mel: 117; UACC-257: 53.9
- GW0742 | A375: 39.7; WM3526: 150; 501mel: 457; UACC-257: 54.7
- GSK650394 | WM3526: 252; UACC-257: 99.7
- sunitinib | A375: 58.4; WM3526: 429; UACC-257: 80.8
- dovitinib | A375: 191; WM3526: 232; UACC-257: 34.9
- dorsomorphin | A375: 89.6; WM3526: 179; 501mel: 183; UACC-257: 76.9
- selumetinib | A375: 103; WM3526: 234; UACC-257: 73.9

Some entries from above, unchanged:

Partner,A375,WM3526,501mel,UACC-257
GSK650394,-,252,-,99.7
XAV939,54.4,84.9,55.4,68.9

Values as published with doi:10.1371/journal.pone.0140310, rounded.